{"source": "PubChem BioAssay AID1224830 (NIAID, 2016)", "aim": "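Host factors that control LPS-induced TNF expression in human macrophages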 (primary screen)", "system": "human THP-1 monocytic leukaemia cells, TNF dual-luciferase reporter clone, PMA-differentiated to macrophage-like cells", "reagent": "siRNA pool against human genes, 50 nM", "timing": "LPS for 4 h, given about 3 days after siRNA transfection", "treatment": "bacterial LPS (TLR4 ligand), 10 ng/ml", "measurement": "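Ratio of firefly to renilla light, scaled to the plate median and expressed as a robust z-score per replicate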", "reading the numbers": "TNF reporter robust z-score: higher = stronger TNF reporter response to LPS", "hit rule": "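Each well counts as active if its z-score is over 2.8 or under -1.5; controls are left without a call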", "note": "The whole screen tested about 18,000 reagents; this is an unselected part. About 2,900 of all reagents (16%) were called active. 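Calls are made per well; low scores hint the gene aids the LPS response, high scores that it dampens it.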 Repeated entries: four replicate wells of each siRNA pool. Reagent sequences are not shown."}
{"gene symbol": "CBX1 (chromobox 1)", "TNF reporter robust z-score": 0.03, "call": "inactive"}
{"gene symbol": "CBX1 (chromobox 1)", "TNF reporter robust z-score": 0.98, "call": "inactive"}
{"gene symbol": "CBX1 (chromobox 1)", "TNF reporter robust z-score": 0.25, "call": "inactive"}
{"gene symbol": "CBX1 (chromobox 1)", "TNF reporter robust z-score": 0.59, "call": "inactive"}
{"gene symbol": "DIO2 (iodothyronine deiodinase 2)", "TNF reporter robust z-score": -0.26, "call": "inactive"}
{"gene symbol": "DIO2 (iodothyronine deiodinase 2)", "TNF reporter robust z-score": 14.2, "call": "active"}
{"gene symbol": "DIO2 (iodothyronine deiodinase 2)", "TNF reporter robust z-score": 2.2, "call": "inactive"}
{"gene symbol": "DIO2 (iodothyronine deiodinase 2)", "TNF reporter robust z-score": 0.82, "call": "inactive"}
{"gene symbol": "CLECL1 (C-type lectin like 1)", "TNF reporter robust z-score": -0.58, "call": "inactive"}
{"gene symbol": "CLECL1 (C-type lectin like 1)", "TNF reporter robust z-score": -1.14, "call": "inactive"}
{"gene symbol": "CLECL1 (C-type lectin like 1)", "TNF reporter robust z-score": -0.88, "call": "inactive"}
{"gene symbol": "CLECL1 (C-type lectin like 1)", "TNF reporter robust z-score": -0.29, "call": "inactive"}
{"gene symbol": "XPO7 (exportin 7)", "TNF reporter robust z-score": -0.39, "call": "inactive"}
{"gene symbol": "XPO7 (exportin 7)", "TNF reporter robust z-score": -1.01, "call": "inactive"}
{"gene symbol": "XPO7 (exportin 7)", "TNF reporter robust z-score": -0.17, "call": "inactive"}
{"gene symbol": "XPO7 (exportin 7)", "TNF reporter robust z-score": 0.55, "call": "inactive"}
{"gene symbol": "USF2 (upstream transcription factor 2, c-fos interacting)", "TNF reporter robust z-score": -0.23, "call": "inactive"}
{"gene symbol": "USF2 (upstream transcription factor 2, c-fos interacting)", "TNF reporter robust z-score": 0.41, "call": "inactive"}
{"gene symbol": "USF2 (upstream transcription factor 2, c-fos interacting)", "TNF reporter robust z-score": 0.34, "call": "inactive"}
{"gene symbol": "USF2 (upstream transcription factor 2, c-fos interacting)", "TNF reporter robust z-score": -0.1, "call": "inactive"}

Part of the list above, reformatted.
CBX1 (chromobox 1) | TNF reporter robust z-score = 0.03; call = inactive
CBX1 (chromobox 1) | TNF reporter robust z-score = 0.98; call = inactive
CBX1 (chromobox 1) | TNF reporter robust z-score = 0.25; call = inactive
